Experimental data: paper PMC7062188, “The crystal structure of human forkhead box N1 in complex with DNA reveals the structural basis for forkhead box family specificity”
For at least one entry, the source does not settle the construct or the ends of the probe. No signal at the amounts used counts as a negative. At least one verdict was read from the data and is not stated in words by the source. Tags and fusion partners may be left off the protein sequences shown.

Target: T1, FOXN1 N-terminal region + forkhead domain (human) (UniProt O15353)
T1 sequence (looked up, limits assumed): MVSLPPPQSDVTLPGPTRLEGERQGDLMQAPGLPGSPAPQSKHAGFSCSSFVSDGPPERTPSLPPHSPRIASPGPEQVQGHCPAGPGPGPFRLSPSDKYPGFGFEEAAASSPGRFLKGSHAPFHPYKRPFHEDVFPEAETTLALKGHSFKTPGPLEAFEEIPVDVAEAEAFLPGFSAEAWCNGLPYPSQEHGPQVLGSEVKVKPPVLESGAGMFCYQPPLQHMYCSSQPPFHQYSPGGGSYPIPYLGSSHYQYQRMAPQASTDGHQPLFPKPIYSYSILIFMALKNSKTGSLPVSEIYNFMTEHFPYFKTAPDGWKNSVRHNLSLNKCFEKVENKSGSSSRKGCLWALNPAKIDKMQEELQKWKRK
Assay: EMSA
Conditions: adding N-terminal region had no effect on binding relative to forkhead domain; EMSA: 50 mM Tris-HCl pH 7.5, 25 mM NaCl, 0.5 mM EDTA, 0.1% Tween 20, 2 mM DTT, 5% glycerol, 30 min room temperature; recombinant protein; label: 32P on forward strand (5', T4 PNK)

“GCAGCAGACGCAACAGAGCGAGACGCCAGGG (double strand) [PSMA7 tandem FHL EMSA probe]”: no binding.
